Results published in paper PMC7819943, “Rice protein-binding microarrays: a tool to detect cis-acting elements near promoter regions in rice”.
The list shows a part of the results.

Target: T1, OsSMF1 (Oryza sativa, UniProt Q6ZLB0 1-436)
T1 sequence: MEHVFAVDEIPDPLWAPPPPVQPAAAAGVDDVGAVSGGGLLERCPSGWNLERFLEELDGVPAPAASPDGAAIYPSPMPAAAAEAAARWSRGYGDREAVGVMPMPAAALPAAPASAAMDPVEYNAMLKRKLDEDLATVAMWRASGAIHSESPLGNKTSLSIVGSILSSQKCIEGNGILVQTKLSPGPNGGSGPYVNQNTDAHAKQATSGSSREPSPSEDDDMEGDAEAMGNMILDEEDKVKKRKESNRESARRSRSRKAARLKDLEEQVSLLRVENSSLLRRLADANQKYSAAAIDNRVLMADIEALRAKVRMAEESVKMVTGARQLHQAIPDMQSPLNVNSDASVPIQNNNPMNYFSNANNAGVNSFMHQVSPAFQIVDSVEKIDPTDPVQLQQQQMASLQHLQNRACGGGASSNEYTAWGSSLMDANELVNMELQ
Test: protein-binding microarray (RPBM); PBS, 2% BSA, 51.3 ng/ul salmon testes DNA, 50 uM zinc acetate, 200 nM TF, 25 C, 1 h; high values mean tight binding
Conditions: protein: recombinant; tags: N-terminal polyhistidine and DsRed monomer fusion (pET32a); chain copies: 2; label: CyDye5-dUTP incorporated in the synthesized complementary strand; 3' TTTTT single-stranded linker to array surface; dsDNA, one strand shown
How it was run: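 Transcription factors, each fused N-terminally to a polyhistidine tag and DsRed, were expressed in E. coli BL21-CodonPlus and purified on Ni–NTA. A custom Agilent array was made double-stranded by primer extension with Cy5-dUTP and blocked with 2% BSA. It was incubated with 200 nM protein in PBS, 2% BSA, salmon testes DNA and 50 µM zinc acetate at 25 °C for 1 h, then washed. The binding signal is per-feature fluorescence intensity (arbitrary units) read on an Axon 4000B scanner.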

Point of comparison: “GCATCACTGACACGCGGGCCCTGCCCACGTGGTCGGTAGCCGGAGTCACCTAGTGCAG”, binding signal 6540 fluorescence intensity (a.u.). Against it:
- ACACGGATATCCACGGCTGCACTGAGGTAGTACTAGATTTCGGAGTCACCTAGTGCAG — lower, 3340 fluorescence intensity (a.u.)
- ATGAGGAGGAGAGAGAATGACATGCGGGTCTCATTAACTCCGGAGTCACCTAGTGCAG — lower, 3280 fluorescence intensity (a.u.)
- CTGGTAACCACGCACAGTAAAAGCTTCATTTTGACTCAGACGGAGTCACCTAGTGCAG — lower, 3620 fluorescence intensity (a.u.)
- GGAGGCAATCACACGACGTGTCTAGGAGTAGTATATTCCTCGGAGTCACCTAGTGCAG — lower, 4110 fluorescence intensity (a.u.)
- TTCCTTTGCCTCGTCATCAAACCGCGCGCGCTCCTCAACTCGGAGTCACCTAGTGCAG — higher, 12900 fluorescence intensity (a.u.)
- CAAATACGATACGTATATTGGGTAGCGGCCAAAGCGCTAGCGGAGTCACCTAGTGCAG — higher, 25200 fluorescence intensity (a.u.)
- TTGACATATGAGCCATAGTAAAATAGGTCCACATGTCAGTCGGAGTCACCTAGTGCAG — lower, 3610 fluorescence intensity (a.u.)
- GAGACTGACGTGTGGGTCCCACGAAGTTAATTATTCTTCCCGGAGTCACCTAGTGCAG — lower, 5980 fluorescence intensity (a.u.)
- CCGCCCGGATCTACCTCGGCGCCGCGTCGGCGGGCGGAACCGGAGTCACCTAGTGCAG — lower, 3710 fluorescence intensity (a.u.)
- TAATCCATTCCTAATAAGAATCGAATAAAGAGATAGAGTTCGGAGTCACCTAGTGCAG — higher, 28800 fluorescence intensity (a.u.)
- TCGAGGAAATTACCATATCGCCCACCACCCCGGGCCACGTCGGAGTCACCTAGTGCAG — lower, 5830 fluorescence intensity (a.u.)
- GATCGATAATCTACGATGAGTAATCGATGTGGTGGACTTGCGGAGTCACCTAGTGCAG — higher, 20000 fluorescence intensity (a.u.)
- AAACGAGCACATGAGCACATGTACACCCTATTCTAAGAGCCGGAGTCACCTAGTGCAG — higher, 29700 fluorescence intensity (a.u.)
- TTACTATATTTGTCTATAAACTTAGTCAAACTTGAAGTCACGGAGTCACCTAGTGCAG — higher, 24300 fluorescence intensity (a.u.)
- TCTGTAGTGTTGGCGTGTTGCCACTATCTTGCATTTACAGCGGAGTCACCTAGTGCAG — lower, 4070 fluorescence intensity (a.u.)
- GAGGTGGGGTGGCTTAGTGACCTCGTGTCGTAGATTGGATCGGAGTCACCTAGTGCAG — lower, 4900 fluorescence intensity (a.u.)
- GAGGAGTGGAAGGGTCTGCAACGGGACGGATGATGGGGTTCGGAGTCACCTAGTGCAG — lower, 5060 fluorescence intensity (a.u.)
- AGGATCTGTGTCTGACTGTGTTTACAAGTGGATTGGATAACGGAGTCACCTAGTGCAG — lower, 6350 fluorescence intensity (a.u.)
- CCTACAGTCAAGCCCATTCTGTTTTACCGATTGCAATGCTCGGAGTCACCTAGTGCAG — higher, 26200 fluorescence intensity (a.u.)
- AATTGGTTGAGAGGAGGATGTACATGGAGAAAATAGCTTTCGGAGTCACCTAGTGCAG — lower, 3490 fluorescence intensity (a.u.)
- GACCACACTAACTCTGTCACCGTGTCTGTTCCATGATCGGCGGAGTCACCTAGTGCAG — lower, 3440 fluorescence intensity (a.u.)
- ATCAAGGAGATCTTCTTCTTCCGCTCGTAATGCTGGATGGCGGAGTCACCTAGTGCAG — higher, 24800 fluorescence intensity (a.u.)
- AATCTATATGTTATCGTCCTCCTCTTGCGTGTGGCTAGTTCGGAGTCACCTAGTGCAG — lower, 3750 fluorescence intensity (a.u.)
- GGACGTTCGAGATTCGTCCACGTCATCATGAGTTAAAATTCGGAGTCACCTAGTGCAG — higher, 11700 fluorescence intensity (a.u.)
- ATTTCACAGTGTTTATCTAGGTGTATTATTCCACACGTGTCGGAGTCACCTAGTGCAG — lower, 6120 fluorescence intensity (a.u.)
- CACCCCGCGCGCTCCCGGTTCCCACCTCCCCTAACTAACTCGGAGTCACCTAGTGCAG — lower, 4040 fluorescence intensity (a.u.)
- TCACGAACGCACGATGCAAAGACAAAGTTGTCACGTCAATCGGAGTCACCTAGTGCAG — higher, 26100 fluorescence intensity (a.u.)
- AGGGATGCAAGAAGAAGAAGCACCTGATTCAACGCTTGCCCGGAGTCACCTAGTGCAG — higher, 24600 fluorescence intensity (a.u.)
- CTCACTCGCTTGCGCTTCACCTCGCGGCATCGACTTCCTACGGAGTCACCTAGTGCAG — lower, 3630 fluorescence intensity (a.u.)
- AGAAAATGAGTTGGAGTCATTATTTTGTGTGTATACCCGACGGAGTCACCTAGTGCAG — lower, 5560 fluorescence intensity (a.u.)
- ACCTGCACAAGTGTGAAGTCGAGGGTGACTCAGCTCAACTCGGAGTCACCTAGTGCAG — higher, 10100 fluorescence intensity (a.u.)
- AGCGACGAGTAAACAAAGCGCGGCGTAGCATGTGATGTGGCGGAGTCACCTAGTGCAG — lower, 4440 fluorescence intensity (a.u.)
- GTCTCGTCGGGTGCGTGGCGTGCGGGGTGCTGCGTTGCCGCGGAGTCACCTAGTGCAG — lower, 6440 fluorescence intensity (a.u.)
- GGATCGGCAATGTCAGCAGCTGCTCACTTGCTCGCATGCCCGGAGTCACCTAGTGCAG — lower, 3740 fluorescence intensity (a.u.)
- GGGGTGCTGTTGCTGCGTGCCTGCGTGTACGTCGTTTGGTCGGAGTCACCTAGTGCAG — higher, 6600 fluorescence intensity (a.u.)
- CTGGTCCCACTTGTCATACACACACTGTCTTTGAATCCGTCGGAGTCACCTAGTGCAG — lower, 3180 fluorescence intensity (a.u.)
- TTTCTGATGATTGCATGCACGTCTTGCTGGCTCATCCATGCGGAGTCACCTAGTGCAG — lower, 3830 fluorescence intensity (a.u.)
- CTGAAATTTCCAATCATCTTGCGTGTGCAAGACAGCAAAGCGGAGTCACCTAGTGCAG — lower, 3530 fluorescence intensity (a.u.)
- CTATATACCCACATAGTTGGTTTATCGGACTGGTTATAGGCGGAGTCACCTAGTGCAG — higher, 19200 fluorescence intensity (a.u.)
- TCTTGTTGCTTGTGTCACCTCCTTTTGTCTTCTACCCGAGCGGAGTCACCTAGTGCAG — lower, 4870 fluorescence intensity (a.u.)
- CGAGGCGCCGTGCGCCGACGGCGGCGTCATCGTCGAGGGACGGAGTCACCTAGTGCAG — lower, 3260 fluorescence intensity (a.u.)
